Measured values from patent US10011814B2, “Salt formulations for the fermentation of marine microorganisms” (Triphase Research and Development I Corp., priority 2006, dated 2018).
Marks after values point to notes of the source that are not given here.

System: Salinispora tropica NPS021184
Test: Production of Salinosporamide A and analogs in shake flask or tube culture; titers by HPLC of EtOAc extract
Conditions: for Max Titers: Ex.1 Table 2; for Max Avg Titer / relative to Sal A (%): Ex.2 Table 3
Method: Seed cultures were prepared by inoculating frozen stock of Salinispora tropica NPS021184 into seed medium.
(§1) The first seed cultures (either 10 mL medium in a 50-mL tube or 100 mL medium in a 500-mL Erlenmeyer flask) were incubated for 3 to 4 days before inoculating into the second seed media with the same composition as the first seed cultures. The second seed cultures (100 mL medium in a 500-mL Erlenmeyer flask) were incubated for two days before inoculating into the production medium (100 mL medium in a 500-mL Erlenmeyer flask).
The chemically defined salt formulation included: […]
(§2) 3.5 mL of the fermentation culture was mixed with equal volume of EtOAc in an extraction tube to extract the various metabolites from the production culture. The mixture was shaken on a shaker for one hr. An aliquot of the extract (1 mL) was removed and dried under a stream of nitrogen. The dried extract was stored at −20° C. freezer before HPLC analysis. The dried extract was resuspended in 320 μL DMSO and injected into HPLC using the 00TF14 method for analysis.
The production of Salinosporamide A, NPI-0047 and NPI-2065 was monitored by Agilent HP1100 HPLC using an ACE C-18 reversed-phase column (4.6×150 mm), and solvent system consisting of water (0.01% TFA) as solvent A and acetonitrile (0.01% TFA) as solvent B. The elution was started at 100% solvent A for 1 min, 100% solvent A to 35% solvent A gradient in 7 min, held at 35% solvent A for 11 min, 35% solvent A to 100% solvent B in 8 min and held at 100% solvent B for 9 min at a flow rate of 1.5 mL/min with the detector wavelength set at 210 nm and column temperature 35° C.
The first seed cultures (either 10 mL medium in a 50-mL tube or 100 ml medium in a 500-ml Erlenmeyer flask) were incubated for 3 to 4 days before inoculating into the second seed media with the same composition as the first seed cultures. The second seed cultures (100 mL medium in a 500-mL Erlenmeyer flask) were incubated for two days before inoculating into the production medium (100 mL medium in a 500-mL Erlenmeyer flask).
as §1, with “in a 50-ml tube or” for “in a 50-mL tube or”, “inoculating into production medium” for “inoculating into the production medium”
as §2, with “shaken” for “shaken on a shaker”, “1” for “one”, “[…]” for “μL”, “TFS7” for “00TF14”
The production of Salinosporamide A, NPI-0047 and NPI-2065 was monitored by Agilent HP1100 HPLC using an ACE C-18 reversed-phase column (4.6×150 mm), and isocratic solvent system consisting of 67% water (0.01% TFA) and 33% acetonitrile (0.01% TFA). The flow rate was 1.5 mL/min for 15 min with the detector wavelength set at 210 nm and column temperature 35° C.
3.5 mL of the fermentation culture was mixed with equal volume of EtOAc in an extraction tube to extract the various metabolites from the production culture. The mixture was shaken on the shaker for 1 hr. An aliquot of the extract (1 mL) was removed and dried under a stream of nitrogen. The dried extract was stored at −20° C. freezer before HPLC analysis. The dried extract was resuspended in 320 μL DMSO and injected into HPLC using the TFS7 method for analysis. […]

CC[C@H]1C(=O)N[C@@]2([C@@H](O)[C@@H]3C=CCCC3)C(=O)O[C@@]12C [NPI-0047, Salinosporamide B]
Titers (maximum concentrations) (BAS.PD + 0.1% Valeric acid): 0.45 mg/L
Maximum Titer (Ex.1 Table 1, shake flask, 104 μg/L CoCl2·6H2O in production medium): 3.6 mg/L
Maximum Titer (Ex.1 Table 1, shake flask, 1.04 mg/L CoCl2·6H2O in production medium): 3.5 mg/L
Maximum Titer (Ex.1 Table 1, shake flask, 10.4 mg/L CoCl2·6H2O in production medium): 3.1 mg/L
Maximum Titer (Ex.1 Table 1, shake flask, no CoCl2·6H2O addition to production medium): 10.6 mg/L
Max Titers (2.6 μg/L CoCl2·6H2O in production medium): 8.3 mg/L
Max Titers (5.2 μg/L CoCl2·6H2O in production medium): 6.0 mg/L
Max Titers (6.5 μg/L CoCl2·6H2O in production medium): 6.3 mg/L
Max Titers (13 μg/L CoCl2·6H2O in production medium): 4.9 mg/L
Max Titers (26 μg/L CoCl2·6H2O in production medium): 3.7 mg/L
Max Titers (52 μg/L CoCl2·6H2O in production medium): 3.1 mg/L
Max Titers (104 μg/L CoCl2·6H2O in production medium): 3.5 mg/L
Max Titers (208 μg/L CoCl2·6H2O in production medium): 3.1 mg/L
Max Titers (416 μg/L CoCl2·6H2O in production medium): 2.7 mg/L
Max Titers (shake flask, control, no CoCl2·6H2O in production medium): 10.2 mg/L
Max Avg Titer (CoCl2·6H2O in seed medium 0 μg/L, 52 μg/L in production medium): 3.3 mg/L
Max Avg Titer (CoCl2·6H2O in seed medium 2.6 μg/L, 52 μg/L in production medium): 3.5 mg/L
Max Avg Titer (CoCl2·6H2O in seed medium 5.2 μg/L, 52 μg/L in production medium): 3.4 mg/L
Max Avg Titer (CoCl2·6H2O in seed medium 13 μg/L, 52 μg/L in production medium): 2.8 mg/L
Max Avg Titer (CoCl2·6H2O in seed medium 26 μg/L, 52 μg/L in production medium): 3.2 mg/L
Max Avg Titer (CoCl2·6H2O in seed medium 52 μg/L, 52 μg/L in production medium): 2.7 mg/L
Max Avg Titer (CoCl2·6H2O in seed medium 104 μg/L, 52 μg/L in production medium): 3.0 mg/L
Max Avg Titer (CoCl2·6H2O in seed medium 208 μg/L, 52 μg/L in production medium): 2.9 mg/L
Max Avg Titer (CoCl2·6H2O in seed medium 416 μg/L, 52 μg/L in production medium): 3.0 mg/L
relative to Sal A (%) (seed CoCl2·6H2O 0 μg/L): 1.1%
relative to Sal A (%) (seed CoCl2·6H2O 2.6 μg/L): 1.2%
relative to Sal A (%) (seed CoCl2·6H2O 5.2 μg/L): 1.1%
relative to Sal A (%) (seed CoCl2·6H2O 13 μg/L): 0.9%
relative to Sal A (%) (seed CoCl2·6H2O 26 μg/L): 0.9%
relative to Sal A (%) (seed CoCl2·6H2O 52 μg/L): 0.8%
relative to Sal A (%) (seed CoCl2·6H2O 104 μg/L): 0.9%
relative to Sal A (%) (seed CoCl2·6H2O 208 μg/L): 0.8%
relative to Sal A (%) (seed CoCl2·6H2O 416 μg/L): 0.9%
Titer (Ex.4 Table 9, Chemically Defined Salt Formulation + Na2SO4 + 52 μg/L CoCl2·6H2O (Medium Lo.Maz, low chloride)): 7.3 mg/L
Titer (Ex.4 Table 9, Chemically Defined Salt Formulation + NaCl + 52 μg/L CoCl2·6H2O, average of two experiments): 3.2* mg/L
Titer (Ex.4 Table 9, production medium with INSTANT OCEAN): 12.7 mg/L
Titer (Ex.4 Table 9, production medium: Chemically Defined Salt Formulation + NaCl): 10.6 mg/L
Titer (Ex.5 Table 12, seed Lo.BNA, production SHY.KcMC, 16 mM sodium by ICP-MS, culture age 3 days): 0.7 mg/L
Titer (Ex.5 Table 12, seed Lo.BNA, production SHY.KcMC, 16 mM sodium by ICP-MS, culture age 4 days): 1.1 mg/L
Titer (Ex.5 Table 12, seed Lo.BNA, production SHY.KcMC, 16 mM sodium by ICP-MS, culture age 5 days): 0.3 mg/L
Titer (Ex.5 Table 12, seed Lo.BNA, production SHY.KcMC, 16 mM sodium by ICP-MS, culture age 6 days): 0.5 mg/L
Titers (Ex.6 Table 13, washed cells, seed A1.Kc4C, production SHY.KcMC, 11 mM sodium by ICP-MS, culture age 3 days): 0 mg/L
Titers (Ex.6 Table 13, washed cells, seed A1.Kc4C, production SHY.KcMC, 11 mM sodium by ICP-MS, culture age 4 days): 0 mg/L
Titers (Ex.6 Table 13, washed cells, seed A1.Kc4C, production SHY.KcMC, 11 mM sodium by ICP-MS, culture age 5 days): 0.5 mg/L
Titers (Ex.6 Table 13, washed cells, seed A1.Kc4C, production SHY.KcMC, 11 mM sodium by ICP-MS, culture age 6 days): 0.6 mg/L
Titers (Ex.8 Table 16, seed SHY.KCD, production SHY.KcMC, 11 mM sodium by ICP-MS, culture age 3 days): 0.2 mg/L
Titers (Ex.8 Table 16, seed SHY.KCD, production SHY.KcMC, 11 mM sodium by ICP-MS, culture age 4 days): 0.5 mg/L
Titers (Ex.8 Table 16, seed SHY.KCD, production SHY.KcMC, 11 mM sodium by ICP-MS, culture age 5 days): 0.7 mg/L
Titers (Ex.8 Table 16, seed SHY.KCD, production SHY.KcMC, 11 mM sodium by ICP-MS, culture age 6 days): 0.9 mg/L
Titers (INSTANT OCEAN-based media, day 4, condition 1 (Control): seed no cobalt addition, production no cobalt addition): 15 mg/L
Titers (INSTANT OCEAN-based media, day 4, condition 2: seed no cobalt addition, production +13 μg/L CoCl2•6H2O): 7.4 mg/L
Titers (INSTANT OCEAN-based media, day 4, condition 3: seed no cobalt addition, production +52 μg/L CoCl2•6H2O): 5.6 mg/L
Titers (INSTANT OCEAN-based media, day 4, condition 4: seed no cobalt addition, production +208 μg/L CoCl2•6H2O): 5.5 mg/L
Titers (INSTANT OCEAN-based media, day 4, condition 5: seed +52 μg/L CoCl2•6H2O, production no cobalt addition): 11.8 mg/L
Titers (INSTANT OCEAN-based media, day 4, condition 6: seed +52 μg/L, production +13 μg/L CoCl2•6H2O): 8.9 mg/L
Titers (INSTANT OCEAN-based media, day 4, condition 7: seed +52 μg/L, production +52 μg/L CoCl2•6H2O): 7.8 mg/L
Titers (INSTANT OCEAN-based media, day 4, condition 8: seed +5 μg/L, production +208 μg/L CoCl2•6H2O): 7.0 mg/L
Titers (INSTANT OCEAN-based media, day 4, condition 9: seed +208 μg/L CoCl2•6H2O, production no cobalt addition): 7.9 mg/L
Titers (INSTANT OCEAN-based media, day 4, condition 10: seed +208 μg/L, production +13 μg/L CoCl2•6H2O): 5.7 mg/L
Titers (INSTANT OCEAN-based media, day 4, condition 11: seed +208 μg/L, production +52 μg/L CoCl2•6H2O): 6.4 mg/L
Titers (INSTANT OCEAN-based media, day 4, condition 12: seed +208 μg/L, production +208 μg/L CoCl2•6H2O): 5.1 mg/L
Maximum Titer (Instant Ocean based media, 0x Vitamin B12: seed 0, production 0): 11.1 mg/L
Maximum Titer (Instant Ocean based media, 1x Vitamin B12: seed and production 0.296 mg/L (0.22 μM)): 2.8 mg/L
Maximum Titer (Instant Ocean based media, 1x vitamin B12P: seed 0, production 0.296 mg/L (0.22 μM) Vitamin B12): 2.9 mg/L
Maximum Titer (Instant Ocean based media, 4x Vitamin B12: seed and production 1.185 mg/L (0.88 μM)): 2.8 mg/L
Maximum Titer (Instant Ocean based media, 10x Vitamin B12: seed and production 2.96 mg/L (2.2 μM)): 2.5 mg/L
Titers (maximum concentrations) (LoCl.PD + 0.1% Valeric acid): 8.3 mg/L
Titer (NPS21184, CoCl2•6H2O 0 in seed medium, 0 in production medium): 13 mg/L
Titer (NPS21184, CoCl2•6H2O 208 μg/L in seed medium, 52 μg/L in production medium): 1.2 mg/L
Titer (NPS21184, production medium with salt formulation, NaCl 0 g/L): 0 mg/L
Titer (NPS21184, production medium with salt formulation, NaCl 5 g/L): 0.5 mg/L
Titer (NPS21184, production medium with salt formulation, NaCl 10 g/L): 14 mg/L
Titer (NPS21184, production medium with salt formulation, NaCl 15 g/L): 6.4 mg/L
Titer (NPS21184, production medium with salt formulation, NaCl 20 g/L): 1.2 mg/L
Titer (NPS21184, production medium with salt formulation, NaCl 24 g/L): 2.1 mg/L
Titer (NPS21184, production medium with salt formulation, NaCl 30 g/L): 1.4 mg/L
Maximum Titer (defined salt formulation based media, 1× CoCl2•6H2O: seed and production 52 μ/L (0.22 μM) CoCl2•6H2O): 1.4 mg/L
Maximum Titer (defined salt formulation based media, 1× vitamin B12: seed and production 0.296 mg/L (0.22 μM) Vitamin B12): 1.1 mg/L
Maximum Titer (defined salt formulation based media, Control: no vitamin B12 or cobalt supplement): 4.7 mg/L
Titers (maximum concentrations) (low chloride production medium LoCl.PD, no valeric acid): 25 mg/L
Titers (maximum concentrations) (saline production medium BAS.PD, no valeric acid): 6.6 mg/L
